Assay results from US4528133A, “Biologically active tripeptide and tetrapeptide alkylamides, and method for the preparation thereof” (SPOFA, spojene podniky pro zdravotnickou vyrobu, priority 1982, dated 1985).
Like-named read-outs stand apart in the source and are kept apart here. At least one compound was matched to its structure with a doubt left. Where a SMILES comes first, the peptide text is derived from it. The star is where a group is joined. NHiBu = CC(C)CN*

Protein sequences, listed by entry. Tags and fused reporters are not part of them. Residues count along the entry.
UniProt P00772, 27-266: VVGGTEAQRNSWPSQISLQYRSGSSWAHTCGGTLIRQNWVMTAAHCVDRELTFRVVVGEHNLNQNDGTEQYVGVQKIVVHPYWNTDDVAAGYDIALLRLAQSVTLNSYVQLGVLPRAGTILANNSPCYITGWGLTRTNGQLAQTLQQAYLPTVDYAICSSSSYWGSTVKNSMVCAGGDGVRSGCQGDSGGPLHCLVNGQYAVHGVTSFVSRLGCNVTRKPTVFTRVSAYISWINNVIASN

Key:
[1] = biological target: pancreatic elastase (UniProt P00772); test: Inhibition of pancreatic elastase (PE), Ki with synthetic nitroanilide substrates; format: biochemical
[2] = biological target: T1, leucocytal elastase (Homo sapiens, UniProt P08246); test: Inhibition of leucocytal elastase (LE), Ki with synthetic nitroanilide substrate; format: biochemical; conditions: substrate Glt-(Ala)3-Val-Nan, read-out: Inhibition constant Ki, LE, Glt--(Ala)3--Val--Nan
T1 sequence (P08246 30-267): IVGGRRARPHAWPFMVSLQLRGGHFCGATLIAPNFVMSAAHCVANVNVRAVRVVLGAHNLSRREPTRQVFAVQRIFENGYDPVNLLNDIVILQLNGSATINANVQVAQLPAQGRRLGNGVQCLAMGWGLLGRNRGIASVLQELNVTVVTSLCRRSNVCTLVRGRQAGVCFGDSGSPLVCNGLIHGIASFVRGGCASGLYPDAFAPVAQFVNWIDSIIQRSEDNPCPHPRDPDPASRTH

SMILES: CC(=O)N[C@@H](CC(=O)O)C(=O)N[C@@H](C)C(=O)N[C@@H](C)C(=O)N1CCC[C@H]1C(=O)NCC(C)C [Ac--Asp--Ala--Pro--NH--iBu] (Ac-DAAP-NHiBu)
- Ki ([1]; substrate Glt-(Ala)4-Nan, read-out: Inhibition constant Ki, PE, Glt--(Ala)4--Nan): 120 µM
- Ki ([1]; substrate Suc-(Ala)4-Nan, read-out: Inhibition constant Ki, PE, Suc--(Ala)4--Nan): 190 µM
- Ki [2]: 191 µM
